These are yes or no findings as the source states them, for the method shown. Some results given as binding are weak or reduced against the parent protein; the word gives no strength.
Key:
[1] = target: human cannabinoid receptor type 1 (CB1) (human) (UniProt P21554); test: FACS on CHO-huCB-1 cells, single concentration 30 ug/mL
[2] = target: human cannabinoid receptor type 1 (CB1) (human) (UniProt P21554); test: flow cytometry, single point at 30 ug/mL antibody on CHO-huCB-1 cells
[3] = target: human cannabinoid receptor type 1 (CB1) (human) (UniProt P21554); test: flow cytometry, single point at 30 ug/mL antibody, signal on CHO-huCB-1 cells relative to CHO parental cells

Binder	binding [1]	binding [2]	binding [3]
M7-H1 humanized anti-CB1 antibody (antibody, human IgG1, kappa, L234A L235A, V domains shown) VH: QVQLVQSGAEVVKPGASVKLSCKASSYTFTRYWMNWVKQAPGQGLEWIGMIDPYDSETHYNQKFKGKATLTVDKSTSTAYMELSSLRSEDTAVYFCARSQPRYYAMDYWGQGTTVTVSS VL: DIQMTQSPSSLSASLGDRVTLTCRASQEISGFLSWLQLKPGKTIKRLIYAASSLDSGVPSRFSGSWSGTDYTLTISSLQPEDFADYYCLQYSSYPYTFGGGTKLEIKR	binds	binds	–
M7-H4 humanized anti-CB1 antibody (antibody, human IgG1, kappa, L234A L235A, V domains shown) VH: QVQLVQSGAEVKKPGASVKVSCKASSYTFTRYWMNWVKQAPGQGLEWIGMIDPYDSETHYNQKFQGRATLTVDTSTSTVYMELSSLRSEDTAVYFCARSQPRYYAMDYWGQGTTVTVSS VL: DIQMTQSPSSLSASVGDRVTLTCRASQEISGFLSWLQLKPGKAIKRLIYAASSLDSGVPSRFSGSWSGTDYTLTISSLQPEDFADYYCLQYSSYPYTFGGGTKVEIKR	binds	binds	–
M7-H7 humanized anti-CB1 antibody (antibody, human IgG1, kappa, L234A L235A, V domains shown) VH: QVQLVQSGAEVVKPGASVKLSCKASSYTFTRYWMNWVKQAPGQGLEWIGMIDPYDSETHYNQKFKGKATLTVDKSTSTAYMELSSLRSEDTAVYFCARSQPRYYAMDYWGQGTTVTVSS VL: DIQMTQSPSSLSASLGDRVTLTCRASQEISGFLSWLQLKPGKTIKRLIYAASSLDSGVPSRFSGSWSGTDYTLTISSLQPEDFADYYCLQYSSYPYTFGGGTKLEIKR	binds	–	binds
